Measurements taken from publication PMC7658364.
Results are given in words; binding and its absence hold for the method and conditions named. Binding seen in cells or lysates may run through a third protein. Some binding calls cover weakened binding; strength is not graded here.

Biological target: T1, ER membrane protein complex subunit 6 (EMC6) (mouse (endogenous in pancreatic tissue of PRSS1Tg mice)) (UniProt Q9CQW0)
T1 sequence: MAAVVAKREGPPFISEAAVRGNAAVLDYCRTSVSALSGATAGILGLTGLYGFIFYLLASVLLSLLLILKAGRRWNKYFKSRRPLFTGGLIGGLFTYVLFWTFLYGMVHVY
Experiment: co-IP; pancreatic tissue lysate of six PRSS1Tg AP mice, pre-cleared with rabbit IgG and A/G beads; immunoprecipitated with anti-EMC6 antibody overnight at 4 °C, A/G beads; immunoblotted for EMC6 and APAF1; rabbit IgG as negative control

Q: For “apoptotic peptidase activating factor 1 (APAF1) (from UniProt O88879-1 1-1249)”, which binding is on record?
A: binds
